# Assay results: paper PMC4992955, “Pichia pastoris Fep1 is a [2Fe-2S] protein with a Zn finger that displays an unusual oxygen-dependent role in cluster binding”
# The comparison behind a weaker result is the experiment's own reference, which may not be listed here. Where a protein sequence is shown, tags need not be part of it.
# Biological target: T1, MBP-Fep1 (41-192) 4S C102S,C108S,C117S,C120S (Pichia pastoris (GS115)) (UniProt A4VAR6)
# T1 sequence (looked up): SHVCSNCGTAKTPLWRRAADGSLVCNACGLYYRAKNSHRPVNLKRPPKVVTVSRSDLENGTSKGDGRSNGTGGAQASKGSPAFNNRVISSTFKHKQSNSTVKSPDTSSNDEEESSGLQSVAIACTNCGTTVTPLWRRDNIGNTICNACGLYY
# Assay: EMSA
# Conditions: 5 uM ZnSO4, 5 uM FeCl3; 12.5 mM Hepes pH 7.9, 75 mM NaCl, 4 mM MgCl2, 1 mM EDTA, 10% glycerol, 4 mM Tris-HCl pH 7.9, 0.6 mM DTT, 1 ug poly(dI-dC)2, 5 uM ZnSO4, 5 uM FeCl3; 100-250 ng protein; recombinant protein; residues 41-192; protein details: MBP fusion; label: 32P end-label (alpha-32P)
sequence,measurement,value
GGCGATTGAACTGATAATTTTACTAAATAAGTGGAA / GGATTCCACTTATTTAGTAAAATTATCAGTTCAAT [fetgata2/fetgata1 (FET3 promoter GATA probe)],binding result,binds more weakly
